In PMC7819943, “Rice protein-binding microarrays: a tool to detect cis-acting elements near promoter regions in rice”:
The list shows a part of the results.

What follows are sequences tested against T1, OsSMF1 (Oryza sativa, UniProt Q6ZLB0 1-436) (assay: protein-binding microarray (RPBM); PBS, 2% BSA, 51.3 ng/ul salmon testes DNA, 50 uM zinc acetate, 200 nM TF, 25 C, 1 h; high values mean tight binding). Conditions: protein: recombinant; tags: N-terminal polyhistidine and DsRed monomer fusion (pET32a); chain copies: 2; label: CyDye5-dUTP incorporated in the synthesized complementary strand; 3' TTTTT single-stranded linker to array surface; dsDNA, one strand shown.
T1 sequence: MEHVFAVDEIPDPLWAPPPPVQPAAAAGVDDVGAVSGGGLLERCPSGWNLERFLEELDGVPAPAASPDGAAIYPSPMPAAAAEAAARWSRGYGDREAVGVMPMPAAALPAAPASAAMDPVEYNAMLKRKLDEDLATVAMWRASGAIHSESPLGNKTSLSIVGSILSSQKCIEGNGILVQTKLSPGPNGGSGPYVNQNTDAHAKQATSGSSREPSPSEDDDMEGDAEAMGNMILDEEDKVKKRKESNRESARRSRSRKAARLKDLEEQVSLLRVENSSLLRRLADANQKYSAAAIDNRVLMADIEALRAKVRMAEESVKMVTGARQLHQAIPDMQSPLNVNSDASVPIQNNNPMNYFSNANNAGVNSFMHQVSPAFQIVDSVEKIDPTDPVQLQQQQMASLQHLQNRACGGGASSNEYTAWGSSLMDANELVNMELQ
Outline: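 Using Ni–NTA, transcription factors fused N-terminally to polyhistidine and DsRed were purified after expression in E. coli BL21-CodonPlus. These were incubated at 200 nM with a blocked, double-stranded custom Agilent array for 1 h at 25 °C in a buffer containing 50 µM zinc acetate, and the array was washed. The binding signal is per-feature fluorescence intensity (arbitrary units) on an Axon 4000B scanner.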

First: ATCTGTTTAACATCGAATCGATCTCATCCAACGTCTTCGGCGGAGTCACCTAGTGCAG
Second: GGCCGGCCCGTCGCTCCACGCCTCGGATCACCACTGTCTTCGGAGTCACCTAGTGCAG
The binding signal of the first is higher: 3910 fluorescence intensity (a.u.) for the first, 3320 fluorescence intensity (a.u.) for the second.

First: GGTGACAGGCAGTCCACATCCTTATCGCTCTTTGCTAGTTCGGAGTCACCTAGTGCAG
Second: TTTCTTTATAATACGATGTTGACTGTATCAACTGTTTCTTCGGAGTCACCTAGTGCAG
The binding signal of the first is lower: 3890 fluorescence intensity (a.u.) for the first, 5040 fluorescence intensity (a.u.) for the second.

First: AATCAATGCGATGGTACGTGCTGTAACTGTAATCGATCACCGGAGTCACCTAGTGCAG
Second: TGAAATGTTTCCCGTCAAGGCGTCAAATACGCACAGTTTTCGGAGTCACCTAGTGCAG
The binding signal of the first is lower: 4650 fluorescence intensity (a.u.) for the first, 6140 fluorescence intensity (a.u.) for the second.

First: ACCCAGTGTCATCGCACTGTACTAAAAGTTAGCCACGTTACGGAGTCACCTAGTGCAG
Second: GCTAGGAGGAATGTGGCATCACCATCAGCTTCTGCATTGGCGGAGTCACCTAGTGCAG
The binding signal of the first is higher: 3930 fluorescence intensity (a.u.) for the first, 3440 fluorescence intensity (a.u.) for the second.

Compared with “CTTGCTGGTGGAGAATGACGCTGCGTTCATGCGGCCTCCGCGGAGTCACCTAGTGCAG”, “GATCGGTTAGTCTCGTTAATTTCGTCATCAGCATTATACTCGGAGTCACCTAGTGCAG” is higher in binding signal: 3670 fluorescence intensity (a.u.) for the first, 5540 fluorescence intensity (a.u.) for the second.

Compared with “TCACTCAAATTTACAGTGCATTTTCTTGTAAGTTACAGTGCGGAGTCACCTAGTGCAG”, “TGGGGATGGATATGGCGCTCCGGGGATGGAGGTGGTGGTGCGGAGTCACCTAGTGCAG” is lower in binding signal: 4800 fluorescence intensity (a.u.) for the first, 3490 fluorescence intensity (a.u.) for the second.

First: TTAATCATATTTTAATTACCTTTATATTCCACGTGTGACTCGGAGTCACCTAGTGCAG
Second: TATACTAATGACTCATTTCATATTAGGTATCCTGTCCTTTCGGAGTCACCTAGTGCAG
The binding signal of the first is higher: 7990 fluorescence intensity (a.u.) for the first, 7610 fluorescence intensity (a.u.) for the second.

Compared with “TGCGCTTGCCTCGGAGTCGGTGGCATCTTACCTGCCGCCACGGAGTCACCTAGTGCAG”, “CTGGACAGGAAGCAAAGCTCCTGACACGCCCAGCCGTCCCCGGAGTCACCTAGTGCAG” is lower in binding signal: 3680 fluorescence intensity (a.u.) for the first, 3220 fluorescence intensity (a.u.) for the second.

Compared with “CGAGTGGACGGAGGAGGAGAGGACGTGGCTCCACGGAGACCGGAGTCACCTAGTGCAG”, “TTTTGAGACGAACACGTGTCGGGCGCCGACGTCACGTCGCCGGAGTCACCTAGTGCAG” is higher in binding signal: 7830 fluorescence intensity (a.u.) for the first, 16300 fluorescence intensity (a.u.) for the second.

Compared with “AATCGAACCCGGGTCTGTACCGTGGCAGGGTACTATTCTACGGAGTCACCTAGTGCAG”, “CCAGCTTGGGTATCAGGGTACACGTGCTACACTTTTAGAGCGGAGTCACCTAGTGCAG” is lower in binding signal: 3290 fluorescence intensity (a.u.) for the first, 3140 fluorescence intensity (a.u.) for the second.

First: TCCTCGTCTGCCTTAATGGTGACTCAACTCTAAAAGTTCTCGGAGTCACCTAGTGCAG
Second: CAGCTCAATAAAACGCAGACGTGGAGGGTGTCGCGGCGCCCGGAGTCACCTAGTGCAG
The binding signal of the first is higher: 9760 fluorescence intensity (a.u.) for the first, 6610 fluorescence intensity (a.u.) for the second.

Going from “TGTCTCCCTCATTCCTTGCAGAGTTGCAGTTGATGTGGCTCGGAGTCACCTAGTGCAG” to “CTTCCGTTTGACGCGGTAGCTGACCAGCCTATGATATACTCGGAGTCACCTAGTGCAG”, the binding signal rises from 3230 fluorescence intensity (a.u.) to 3560 fluorescence intensity (a.u.).

First: CATTCTATGAGCTAGACCTGGGGCTCAATCATGTCTCGCGCGGAGTCACCTAGTGCAG
Second: ACTGTTTAGCTAGCGCTTTAATCTGTCTGCGTAATTTGTTCGGAGTCACCTAGTGCAG
The binding signal of the first is higher: 35100 fluorescence intensity (a.u.) for the first, 3150 fluorescence intensity (a.u.) for the second.

Compared with “TGACAGCCACAAGTATGATGTGATAAAGTGTGGCTATAAACGGAGTCACCTAGTGCAG”, “AGTGGGCTATATGGGCAGTCTCAACCCTCCACCTAGGATGCGGAGTCACCTAGTGCAG” is lower in binding signal: 65500 fluorescence intensity (a.u.) for the first, 3380 fluorescence intensity (a.u.) for the second.

Compared with “GACATGGAGACACGTCCAGTTGGAAGTGGAAGCTTGGGACCGGAGTCACCTAGTGCAG”, “CGCGCGCGCGCCACTGCCACATCGGGCACAGCGCTACCCCCGGAGTCACCTAGTGCAG” is lower in binding signal: 23900 fluorescence intensity (a.u.) for the first, 6730 fluorescence intensity (a.u.) for the second.

Going from “AGATGTTAGAAATCTAGTCATCTAGATGACACATCTGTACCGGAGTCACCTAGTGCAG” to “AGGAAAAGGAAAACAACTGCTGACCCACATCTCGTTTTATCGGAGTCACCTAGTGCAG”, the binding signal falls from 6360 fluorescence intensity (a.u.) to 4550 fluorescence intensity (a.u.).

Compared with “ACAAGCAGGGAGGACAGTGGGGCGGCGTGGCAGCAGGGGCCGGAGTCACCTAGTGCAG”, “GTCCTCTCTCTCGCTCCGATCGCCGTCACTCACCGCCGGGCGGAGTCACCTAGTGCAG” is lower in binding signal: 4570 fluorescence intensity (a.u.) for the first, 4180 fluorescence intensity (a.u.) for the second.

Going from “GCCATGATGCTTGTTTGTATATATACTGCATATTTCTGTCCGGAGTCACCTAGTGCAG” to “TTCAGATCTCAGGTGAGAATATCTCCAGAGTTGGTTGATCCGGAGTCACCTAGTGCAG”, the binding signal rises from 4610 fluorescence intensity (a.u.) to 19100 fluorescence intensity (a.u.).

First: CCACATGCCCTCTCCGCTCGCCACGTGCACCGCTCCCATCCGGAGTCACCTAGTGCAG
Second: CTTACGAGGGCACACGTGGCTTGCCTGCAGGGCTGCAGATCGGAGTCACCTAGTGCAG
The binding signal of the first is lower: 7880 fluorescence intensity (a.u.) for the first, 9040 fluorescence intensity (a.u.) for the second.

Compared with “CAATGGCATCTCACCTCTCAGGGTTTGGTGCCCTGTAACTCGGAGTCACCTAGTGCAG”, “GGCGGAGGAAGACGGCCAATACCGCAAGAGGGAGACGTGGCGGAGTCACCTAGTGCAG” is higher in binding signal: 4510 fluorescence intensity (a.u.) for the first, 18700 fluorescence intensity (a.u.) for the second.

Compared with “TGAATTGGAGCGACCGTGAGAGGTAGCATAGAATGTCATGCGGAGTCACCTAGTGCAG”, “GCGGGTAGGGCTCCACGTCACCGATCCAGCTCCTCCTTGCCGGAGTCACCTAGTGCAG” is higher in binding signal: 3270 fluorescence intensity (a.u.) for the first, 35500 fluorescence intensity (a.u.) for the second.

First: CTGACACCTGGGCCCCACCCGCAGTGACACGTCGACGCGGCGGAGTCACCTAGTGCAG
Second: CCGGGAAGGGAGAGGGAGAGAGGAGTCGGGGCGAGAAGTGCGGAGTCACCTAGTGCAG
The binding signal of the first is higher: 17800 fluorescence intensity (a.u.) for the first, 3500 fluorescence intensity (a.u.) for the second.

Going from “AATAACATATCCATTTATATTAACTACGAACAAATATGCACGGAGTCACCTAGTGCAG” to “ATCTCGCGCCCGCGCGCCAGGAGGCCAAGTCGCGCACATGCGGAGTCACCTAGTGCAG”, the binding signal falls from 16300 fluorescence intensity (a.u.) to 3150 fluorescence intensity (a.u.).

Compared with “TCCCATCCAAGGTAATCTACACATTTTCACTCAGTGAGATCGGAGTCACCTAGTGCAG”, “TGTTTTGCATATGCAAGTCTACACGTCAGATGTGATGCCACGGAGTCACCTAGTGCAG” is higher in binding signal: 3180 fluorescence intensity (a.u.) for the first, 11400 fluorescence intensity (a.u.) for the second.

Compared with “AGACGAAGGACACGCGGAGGCCGCGCGAGGCCAGGCGGCCCGGAGTCACCTAGTGCAG”, “CCCTCTCCTCCGCAGCGCGCCACAGGCTACAAGAGGTGAGCGGAGTCACCTAGTGCAG” is higher in binding signal: 3240 fluorescence intensity (a.u.) for the first, 24200 fluorescence intensity (a.u.) for the second.

Going from “CGAAGGTGCCAGGCCACGCGGGCGATTGCGTCTACCTCAACGGAGTCACCTAGTGCAG” to “CCAAAACTTTCTCCTCACACGCGTCAAGTGGGCCCCACCTCGGAGTCACCTAGTGCAG”, the binding signal rises from 3740 fluorescence intensity (a.u.) to 4020 fluorescence intensity (a.u.).

Compared with “GTAAACCTGCTCGGTCCACAGCACAGGCGCACAACAGAGTCGGAGTCACCTAGTGCAG”, “AAATATGTGGAGATGAGGTTAACAGCACCTGGAGGCTTGTCGGAGTCACCTAGTGCAG” is lower in binding signal: 3370 fluorescence intensity (a.u.) for the first, 3250 fluorescence intensity (a.u.) for the second.
